{"source": "PubChem BioAssay AID1259254 | NCATS, 2017", "purpose": "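Genome-wide screen for genes that prevent DNA re-replication in cancer cells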 (primary screen)", "cell system": "human HCT116 colorectal cancer cells", "reagents": "single siRNA against human genes", "timing": "3 days", "measurement": "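Imaged Hoechst DNA stain sorts each cell into a cycle phase by DNA amount; per plate, G2 fraction set to 0% for non-targeting and 100% for GMNN siRNA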", "direction": "G2 robust z-score: higher = more G2 cells, more excess DNA replication", "hit rule": "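An siRNA counts as active if its G2 robust z-score lies at least 5 MADs above the screen median; here such calls match roughly 38% of GMNN control or more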", "note": "The deposit covers about 59,000 reagents; shown is an unselected part. About 1,550 of all reagents (2.6%) count as active. 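G2 share is only a proxy for re-replication; each gene was hit by three separate siRNAs, and active genes were retested.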 The numbers tell different reagents against one gene apart. Further read-outs or replicates are left out here. Not given: the amount of reagent."}
{"target":"ZNF568","siRNA no.":1,"G2 robust z-score":-0.481,"Outcome":"inactive"}
{"target":"ZNF568","siRNA no.":2,"G2 robust z-score":0.08,"Outcome":"inactive"}
{"target":"ZNF568","siRNA no.":3,"G2 robust z-score":-0.397,"Outcome":"inactive"}
{"target":"POLR2I","siRNA no.":1,"G2 robust z-score":2.55,"Outcome":"inactive"}
{"target":"POLR2I","siRNA no.":2,"G2 robust z-score":3.24,"Outcome":"inactive"}
{"target":"POLR2I","siRNA no.":3,"G2 robust z-score":1,"Outcome":"inactive"}
{"target":"CTBP1-DT","siRNA no.":1,"G2 robust z-score":0.596,"Outcome":"inactive"}
{"target":"CTBP1-DT","siRNA no.":2,"G2 robust z-score":0.7,"Outcome":"inactive"}
{"target":"CTBP1-DT","siRNA no.":3,"G2 robust z-score":0.03,"Outcome":"inactive"}
{"target":"ALDH1L1","siRNA no.":1,"G2 robust z-score":-1.17,"Outcome":"inactive"}
{"target":"ALDH1L1","siRNA no.":2,"G2 robust z-score":-1.15,"Outcome":"inactive"}
{"target":"ALDH1L1","siRNA no.":3,"G2 robust z-score":0.467,"Outcome":"inactive"}
{"target":"SPTSSB","siRNA no.":1,"G2 robust z-score":0.703,"Outcome":"inactive"}
{"target":"SPTSSB","siRNA no.":2,"G2 robust z-score":-0.722,"Outcome":"inactive"}
{"target":"SPTSSB","siRNA no.":3,"G2 robust z-score":2.05,"Outcome":"inactive"}
{"target":"RAD54L","siRNA no.":1,"G2 robust z-score":-0.565,"Outcome":"inactive"}
{"target":"RAD54L","siRNA no.":2,"G2 robust z-score":-0.249,"Outcome":"inactive"}
{"target":"RAD54L","siRNA no.":3,"G2 robust z-score":-0.438,"Outcome":"inactive"}
{"target":"CLPP","siRNA no.":1,"G2 robust z-score":0.137,"Outcome":"inactive"}
{"target":"CLPP","siRNA no.":2,"G2 robust z-score":-0.968,"Outcome":"inactive"}
{"target":"CLPP","siRNA no.":3,"G2 robust z-score":-0.975,"Outcome":"inactive"}
{"target":"ZDHHC11","siRNA no.":1,"G2 robust z-score":1.56,"Outcome":"inactive"}
{"target":"ZDHHC11","siRNA no.":2,"G2 robust z-score":-0.565,"Outcome":"inactive"}
{"target":"ZDHHC11","siRNA no.":3,"G2 robust z-score":2.8,"Outcome":"inactive"}
{"target":"ZNF770","siRNA no.":1,"G2 robust z-score":-0.0344,"Outcome":"inactive"}
{"target":"ZNF770","siRNA no.":2,"G2 robust z-score":-0.156,"Outcome":"inactive"}
{"target":"ZNF770","siRNA no.":3,"G2 robust z-score":-0.454,"Outcome":"inactive"}
{"target":"NOXO1","siRNA no.":1,"G2 robust z-score":1.86,"Outcome":"inactive"}
{"target":"NOXO1","siRNA no.":2,"G2 robust z-score":3.85,"Outcome":"inactive"}
{"target":"NOXO1","siRNA no.":3,"G2 robust z-score":-0.101,"Outcome":"inactive"}

Entries listed so far whose gene name begins with N or n (3):
{"target":"NOXO1","siRNA no.":1,"G2 robust z-score":1.86,"Outcome":"inactive"}
{"target":"NOXO1","siRNA no.":2,"G2 robust z-score":3.85,"Outcome":"inactive"}
{"target":"NOXO1","siRNA no.":3,"G2 robust z-score":-0.101,"Outcome":"inactive"}
